# Laboratory results published in PubChem BioAssay AID504467 (National Center for Advancing Translational Sciences (NCATS), 2011).
# Hit rate of the full screen: of about 330,000 compounds, about 7,700 (2.3%) were called active. The inconclusive results got no clear call from the source; some entries with a clear call stand among them for comparison. The call rests on the fitted dose curve; in most records, active means well fitted inhibition curve with a large enough effect; inconclusive means small, poorly fitted or top-dose-only effect, or effect the other way; inactive means flat fitted curve, though single readings scatter. Where the call is inconclusive, the potency comes from a doubtful curve fit.
# Assay: qHTS screen for small molecules that inhibit ELG1-dependent DNA repair in human embryonic kidney (HEK293T) cells expressing luciferase-tagged ELG1; further: nearly all actives have a fitted effect of over 55% in size
# Conditions: HEK293T ELG1-luciferase reporter, luminescence, 16 h, DNA damage induced by 5-fluorouridine; activity change, negative = inhibition: at 46.1 µM (top of the series)
# In short: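 Luminescence from the luciferase reporter, measured 30 min after ONE-Glo reagent at room temperature, was the read-out. Beforehand, 2,000 cells per well were exposed for 16 hr at 37 °C to 5-fluorouridine together with compound or vehicle.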
# On the % scale 0 is the no-effect control and ±100 the full control effect; potency means the concentration at half of the fitted maximal effect.
Compound,Potency,"activity change, negative = inhibition"
Cc1c(C(=O)NCCN2CCOCC2)oc2ccc(Br)cc12,"inconclusive: 3.66 µM [activator, partial curve, poor fit]",–
Cc1ccc(CSCC(=O)Nc2ccccc2C(=O)O)cc1,"inconclusive: 9.2 µM [activator, partial curve]",–
C/C(=N\NC(=O)C1COc2ccccc2O1)c1ccc(Cl)s1 (stereo not drawn),–,inactive: 3.52%
O=C(NNC(=O)c1ccccc1O)c1ccc(Cl)cc1,"inconclusive: 11.2 µM [activator, partial curve, poor fit]",–
COc1ccc(/C=C(\C#N)C(=O)NCCc2ccccc2)cc1OCc1ccccc1,"inconclusive: 11.6 µM [inhibitor, partial curve, poor fit]",–
CN1CCN(S(=O)(=O)c2ccc(N3CCN(C(c4ccccc4)c4ccccc4)CC3)nc2)CC1,"inconclusive: 0.231 µM [inhibitor, single point]",–
O=C(c1cc(COc2cccc3cnccc23)on1)N1CCC(c2ccccc2Cl)C1 (stereo not drawn),"inconclusive: 29.1 µM [inhibitor, single point]",–
COc1cc(/C=C(\C#N)c2ccccn2)ccc1OCC(=O)Nc1ccc(Br)cc1,"inconclusive: 18.4 µM [inhibitor, partial curve]",–
COc1ccc(CCCc2nnc(SCC(=O)Nc3ccc(C)c(C)c3)o2)cc1,–,inactive: -17.5%
O=C(c1cc(=O)[nH]c2ccccc12)N1CCN(c2ccc([N+](=O)[O-])cc2)CC1,"inconclusive: 1.83 µM [inhibitor, full curve, poor fit]",–
N#CC1=C2C=CC=CN2CC1=O,"inconclusive: 23.1 µM [activator, partial curve]",–
CCOC(=O)c1cnc(-n2nc(C)cc2C)nc1NC(C)c1ccccc1 (stereo not drawn),"inconclusive: 10.3 µM [inhibitor, partial curve]",–
COC(=O)C1CCN(C(=O)c2cc3ccccc3oc2=O)CC1,"inconclusive: 20.6 µM [activator, partial curve]",–
CCCN1CCC(=NNC(=O)c2ccc(Br)o2)CC1,"inconclusive: 16.4 µM [activator, partial curve, poor fit]",–
CCn1c(CNC(=O)c2ccccc2F)cc2cc(C)ccc21,"inconclusive: 25.9 µM [activator, single point]",–
Cc1oc(-c2ccc(Cl)cc2)nc1CS(=O)CC(=O)NCc1ccc2c(c1)OCO2 (stereo not drawn),"inconclusive: 16.4 µM [inhibitor, single point]",–
CCCCCCCCCOC(=O)C[n+]1csc(CCO)c1C,–,inactive: 7.78%
c1ccc2c(c1)CCCN2c1nc2ccccc2n2cnnc12,"inconclusive: 4.11 µM [activator, full curve]",–
Cc1ccc(-c2cc(C(=O)N(C)Cc3cnn(C)c3C)c3cc(Br)ccc3n2)cc1,active: 5.8 µM,–
Cc1ccccc1-c1n[nH]c(=S)n1Cc1ccccc1,–,inactive: 25.6%
c1ccc(-c2nc(NCCCn3ccnc3)c3ccccc3n2)cc1,"inconclusive: 18.3 µM [inhibitor, single point]",–
COc1ccc(O[C@H]2C=C[C@@H](c3ccccc3)O[C@@H]2CO/N=C(\C)CCN2CCCCc3nc(C)c(C)cc32)cc1,"inconclusive: 29.1 µM [inhibitor, partial curve, poor fit]",–
Cc1ccc2cccc(NC(=S)NC(=O)c3c(Br)cnn3C)c2n1,–,inactive: 19.4%

Compound,Potency,"activity change, negative = inhibition"
Clc1ccc(-c2ccc(/C=N/Nc3cc(N4CCOCC4)nc(N4CCOCC4)n3)o2)cc1,active: 5.8 µM,–
N#CC1=C(N)SC(N)=C(C#N)C1CCc1ccccc1,"inconclusive: 35.5 µM [inhibitor, single point]",–
COc1cc(C(=O)Nc2sc3c(c2C(=O)NCc2ccco2)CCCC3)cc(OC)c1OC,"inconclusive: 3.26 µM [inhibitor, full curve]",–
CSc1nc2ccccc2cc1/C=C(\C#N)c1ccccc1,–,inactive: -11.9%
O=S1(=O)N=C(Nc2ccc(S(=O)(=O)N3CCCCC3)cc2)c2ccccc21,"inconclusive: 23.1 µM [inhibitor, partial curve, poor fit]",–
CCCC(=O)N1CCN(c2ccc([N+](=O)[O-])cc2Cl)CC1,–,inactive: -7.31%
Cc1ccc(C)c(C(=O)Nc2nc3ccccc3[nH]2)c1,"inconclusive: 3.26 µM [activator, full curve]",–
CCOc1ccccc1C(=O)Nc1nnc(SCC(=O)N2CCOCC2)s1,–,inactive: 0.116%
CC(C)Nc1ncnc2ccc(Br)cc12,active: 2.31 µM,–
Cc1cc2cc(CN(Cc3ccco3)S(=O)(=O)c3c(C)ccc4nsnc34)c(=O)[nH]c2cc1C,"inconclusive: 16.4 µM [inhibitor, single point]",–
O=C(Nc1ncc(Cc2ccc(SC(F)F)cc2)s1)c1ccc(OC(F)F)cc1,"inconclusive: 5.17 µM [inhibitor, full curve]",–
CC(C)(C)OC(=O)NCCCCCNC(=O)c1nc[nH]c1C(=O)N1CCN(c2ccccc2)CC1,"inconclusive: 25.9 µM [inhibitor, single point]",–
CNC(=O)N(O)C1N(/N=C/c2ccc(SC)cc2)C(=S)SC1(C)C (stereo not drawn),–,inactive: 0.159%
CN(Cc1ccccc1F)C(=O)COc1ccc(C(=O)c2ccccc2)cc1,"inconclusive: 18.3 µM [inhibitor, partial curve, poor fit]",–
NNc1nc2c(-c3ccc(F)cc3)nnn2c2ccccc12,"inconclusive: 2.91 µM [activator, partial curve]",–
CCN1C(=O)CC(c2ccco2)Sc2ccccc21 (stereo not drawn),"inconclusive: 9.2 µM [activator, partial curve]",–
O=C1COc2ccc(S(=O)(=O)CCC(=O)NC3CCCCC3)cc2N1,–,inactive: 9.51%
CCCOc1ccc(C(=O)NNC(=S)NC(=O)CC)cc1,"inconclusive: 16.4 µM [activator, single point]",–
CC(=O)c1ccc(Nc2ccc(-c3ccccc3C)nn2)cc1,"inconclusive: 10.3 µM [activator, partial curve]",–
Cc1ccc(C2C(C(=O)c3ccco3)=C(O)C(=O)N2c2ncccn2)cc1 (stereo not drawn),"inconclusive: 0.0291 µM [activator, partial curve, poor fit]",–
CCn1c(=S)[nH]c2cc(C(=O)OC)ccc2c1=O,–,inactive: 1.18%
COc1ccc(S(=O)(=O)N2CCCCCC2)cc1C(=O)N(C)Cc1ccc(Cl)cc1Cl,"inconclusive: 25.9 µM [inhibitor, single point]",–
COc1ccc(-c2coc3cc(O)ccc3c2=O)cc1OC,"inconclusive: 16.4 µM [activator, partial curve]",–

# Part of the list above in a different format:
Compound	Potency	activity change, negative = inhibition
COc1ccc(CCCc2nnc(SCC(=O)Nc3ccc(C)c(C)c3)o2)cc1	–	inactive: -17.5%
O=C(c1cc(=O)[nH]c2ccccc12)N1CCN(c2ccc([N+](=O)[O-])cc2)CC1	inconclusive: 1.83 µM [inhibitor, full curve, poor fit]	–
N#CC1=C2C=CC=CN2CC1=O	inconclusive: 23.1 µM [activator, partial curve]	–
CCOC(=O)c1cnc(-n2nc(C)cc2C)nc1NC(C)c1ccccc1 (stereo not drawn)	inconclusive: 10.3 µM [inhibitor, partial curve]	–
COC(=O)C1CCN(C(=O)c2cc3ccccc3oc2=O)CC1	inconclusive: 20.6 µM [activator, partial curve]	–
CCCN1CCC(=NNC(=O)c2ccc(Br)o2)CC1	inconclusive: 16.4 µM [activator, partial curve, poor fit]	–
CCn1c(CNC(=O)c2ccccc2F)cc2cc(C)ccc21	inconclusive: 25.9 µM [activator, single point]	–
Cc1oc(-c2ccc(Cl)cc2)nc1CS(=O)CC(=O)NCc1ccc2c(c1)OCO2 (stereo not drawn)	inconclusive: 16.4 µM [inhibitor, single point]	–
CCCCCCCCCOC(=O)C[n+]1csc(CCO)c1C	–	inactive: 7.78%
c1ccc2c(c1)CCCN2c1nc2ccccc2n2cnnc12	inconclusive: 4.11 µM [activator, full curve]	–
Cc1ccc(-c2cc(C(=O)N(C)Cc3cnn(C)c3C)c3cc(Br)ccc3n2)cc1	active: 5.8 µM	–
Cc1ccccc1-c1n[nH]c(=S)n1Cc1ccccc1	–	inactive: 25.6%
c1ccc(-c2nc(NCCCn3ccnc3)c3ccccc3n2)cc1	inconclusive: 18.3 µM [inhibitor, single point]	–

# Next part:

Compound,Potency,"activity change, negative = inhibition"
OCCNCCCOc1ccc(Cl)cc1Br,"inconclusive: 29.1 µM [activator, single point]",–
O=C(NCC(=O)N(Cc1ccccc1)C(C(=O)NC1CCCCC1)c1ccco1)c1ccco1 (stereo not drawn),"inconclusive: 29.1 µM [inhibitor, single point]",–
CCOc1ccccc1CNC(=O)C1CCN(C(=O)N2CC(C)Oc3ccc(C)cc32)CC1 (stereo not drawn),"inconclusive: 23.1 µM [inhibitor, single point]",–
CCOCc1nnc(NC(=O)c2cc(C(=O)OC)cc([N+](=O)[O-])c2)s1,–,inactive: 7.62%
CCCCc1ccc(-c2ccc(C)cc2O)nc1,"inconclusive: 1.64 µM [activator, full curve]",–
O=C(NN=C1CCCCCCC1)c1ccccn1,"inconclusive: 29.1 µM [activator, single point]",–
COc1cc(OC)cc(C(=O)N2CCN(Cc3ccc4c(c3)OCO4)CC2)c1,–,inactive: -2.23%
COc1ccc2c(C)c(CCC(=O)NC3CC3)c(=O)oc2c1C,"inconclusive: 4.61 µM [activator, partial curve, poor fit]",–
C[C@@H]1CN([C@H](C)CO)C(=O)c2cc(NC(=O)Nc3ccc(C(F)(F)F)cc3)ccc2O[C@H]1CN(C)S(=O)(=O)c1ccc(Cl)cc1,"inconclusive: 25.9 µM [inhibitor, partial curve, poor fit]",–
CCOC(=O)c1nn(-c2ccccc2)c(=O)cc1OCC(=O)Nc1ccccc1OCC,"inconclusive: 0.82 µM [activator, full curve, poor fit]",–
C=CCNC(=S)NNC(=O)c1ccco1,–,inactive: 0.24%
c1ccc(CCNc2ccnc3cc4ccccc4cc23)cc1,"inconclusive: 3.66 µM [inhibitor, partial curve, poor fit]",–
CCc1ccccc1NC(=O)N1CCc2ccccc2C1,"inconclusive: 11.6 µM [activator, partial curve, poor fit]",–
Cc1c(C(=O)N/N=C/c2c(O)ccc3ccccc23)nnn1-c1nonc1N,"inconclusive: 2.59 µM [inhibitor, partial curve, poor fit]",–
O=C(c1ccc(NS(=O)(=O)c2ccc3c(c2)OCCO3)cc1)N1CCCCC1,active: 23.1 µM,–
CSc1ccccc1NC(=O)c1cnccn1,"inconclusive: 8.2 µM [activator, partial curve]",–
COc1ccc(OCC(=O)N2CCc3c([nH]c4ccccc34)C2c2ccccn2)cc1 (stereo not drawn),"inconclusive: 16.4 µM [inhibitor, partial curve, poor fit]",–
Cc1ccc(NC(=S)NC2CCCC2)cc1,"inconclusive: 13 µM [activator, partial curve]",–
O=C(CSc1nnc(-c2ccccc2Cl)o1)N1CCCC1,"inconclusive: 20.6 µM [activator, partial curve]",–
CC(=O)Nc1ccc(NC(=O)c2ccco2)cc1,"inconclusive: 18.4 µM [activator, partial curve]",–
COc1cccc(NC(=O)CSc2ccccn2)c1,"inconclusive: 16.4 µM [activator, partial curve]",–
CC1CCN(S(=O)(=O)c2cc([N+](=O)[O-])ccc2Cl)CC1,"inconclusive: 0.58 µM [activator, single point]",–
